For the experiment, the target named is human cone PDE6C (aa 1-830), expressed as an EGFP fusion protein and released with HRV-3C protease (human) (UniProt P51160). As to the kind of experiment: mass photometry; concentrated peak SEC fraction of PDE6C co-expressed with AIPL1 and Pγ; Refeyn TwoMP, 25 °C, DPBS without calcium and magnesium, 3 to 5 μl of 100 nM protein into 15 μl buffer; both purified.

Chains of the proteins cited; added tags and fusions are not shown. Residues count along the entry.
UniProt P51160, residues 1-830: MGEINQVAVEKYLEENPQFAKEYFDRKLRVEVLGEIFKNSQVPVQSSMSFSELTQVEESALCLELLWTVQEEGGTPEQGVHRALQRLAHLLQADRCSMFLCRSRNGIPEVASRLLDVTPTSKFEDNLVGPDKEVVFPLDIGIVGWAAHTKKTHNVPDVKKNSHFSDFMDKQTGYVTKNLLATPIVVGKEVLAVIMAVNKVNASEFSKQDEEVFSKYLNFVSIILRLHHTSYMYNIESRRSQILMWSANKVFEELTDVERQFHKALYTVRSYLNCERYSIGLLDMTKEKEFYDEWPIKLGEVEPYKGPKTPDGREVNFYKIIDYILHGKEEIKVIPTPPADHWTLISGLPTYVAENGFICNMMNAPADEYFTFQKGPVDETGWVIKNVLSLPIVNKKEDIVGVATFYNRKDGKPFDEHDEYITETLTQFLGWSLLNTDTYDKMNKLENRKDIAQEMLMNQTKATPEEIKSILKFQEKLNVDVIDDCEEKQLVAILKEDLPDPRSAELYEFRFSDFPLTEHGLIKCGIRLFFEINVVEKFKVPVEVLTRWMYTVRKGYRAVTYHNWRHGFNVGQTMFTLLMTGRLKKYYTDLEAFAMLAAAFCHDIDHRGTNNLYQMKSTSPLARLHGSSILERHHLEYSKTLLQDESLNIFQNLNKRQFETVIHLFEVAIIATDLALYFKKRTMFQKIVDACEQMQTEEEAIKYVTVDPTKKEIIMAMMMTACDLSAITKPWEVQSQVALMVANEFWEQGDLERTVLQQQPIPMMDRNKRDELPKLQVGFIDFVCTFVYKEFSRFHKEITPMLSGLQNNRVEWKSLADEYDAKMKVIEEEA

These are yes or no findings as the source states them, for the method shown. Some results given as binding are weak or reduced against the parent protein; the word gives no strength. Where a sequence is shown, tags or fusion partners need not be part of it.

B1: His6-tagged bovine Pγr (rod PDE6 inhibitory γ-subunit), bacterially expressed (natural protein, UniProt P04972 1-87, looked up)
chain: MNLEPPKAEIRSATRVMGGPVTPRKGPPKFKQRQTRQFKSKPPKKGVQGFGDDIPGMEGLGTDITVICPWEAFNHLELHELAQYGII
notes: also called rod Pγ; purified recombinant Pγr
For B1, the binding entry is on record as “binds”.

The values are drawn from paper PMC10819763, “Reconstitution of the phosphodiesterase 6 maturation process important for photoreceptor cell function” (The Journal of Biological Chemistry, 2023).
